Test results as given in article PMC10721834.

How the values were obtained:
[1] = molecular target: GST-tagged Cw9a(1-52) (S. pombe (natural isolate CBS5557)); assay: pull-down; GST pull-down: E. coli lysate with the GST fusion mixed with S. pombe lysate with the 3×FLAG-tagged ubiquitin ligase, 4 °C, glutathione-sepharose beads; 50 mM phosphate pH 7.4, 200 mM NaCl, 10% glycerol, 0.05% NP-40; anti-FLAG blot
[2] = molecular target: GST-tagged Cw9a(1-104) PY1*PY3* (S. pombe (natural isolate CBS5557)); assay: as above
[3] = molecular target: GST-tagged Cw9a(1-104) PY1* (S. pombe (natural isolate CBS5557)); assay: as above
[4] = molecular target: GST-tagged Cw9a(1-104) PY1*PY2* (S. pombe (natural isolate CBS5557)); assay: as above
[5] = molecular target: GST-tagged Cw9a(1-104) PY2*PY3* (S. pombe (natural isolate CBS5557)); assay: as above
[6] = molecular target: GST-tagged Cw9a(53-104) (S. pombe (natural isolate CBS5557)); assay: as above
[7] = molecular target: GST-tagged Cw9a(24-52) (S. pombe (natural isolate CBS5557)); assay: as above
[8] = molecular target: GST-tagged Cw9a(1-104) PY3* (S. pombe (natural isolate CBS5557)); assay: as above
[9] = molecular target: GST-tagged Cw9a(1-104) (S. pombe (natural isolate CBS5557)); assay: as above
[10] = molecular target: GST-tagged Cw9a(1-104) PY2* (S. pombe (natural isolate CBS5557)); assay: as above
[11] = molecular target: GFP-Cw9a(1-52) (S. pombe (natural isolate CBS5557)); assay: co-IP; in vivo co-immunoprecipitation in S. pombe (Supplementary Fig. 1h); GFP-Trap agarose beads by the general method

Measured: binding

B1: 3×FLAG-tagged Pub3 (enzyme, UniProt O14326 1-786)
chain: MEQGAKRVRFYIVAADGLSKRDLFRQPDPFAILTVDGEQTHTTKVIKKSVNPYWNEGFEVTVKPSSVISIRLFDQKKFKKKDQGFLGLVSFRMREVGSFRSNREVSLTRPLKKSSTTNLSVLGNLVLKVAPSKIRAPAGNHSSTTANRTTSTPTTTTARTTRTTPRPTATTNTSNQSTSNSTRNGTSAATSNGTGTGAGTGASHRSSPVTNRQTNNTSALSNSNAHIMSSFEDQYGRLPPGWERRADSLGRTYYVDHNTRTTTWTRPASSTNPVHNTSSDSQRLNHQNRHLPDDSNPSLMQSDSGNDLPFGWEMRYTDTGRPYFVDHNTRTTTWVDPRNPLVRPNGGSSTVGSLMQPQSLSHLGPLPSGWEMRLTNSARVYFVDHNTKTTTWDDPRLPSALDQDVPQYKCDFRRKLIYFRSQPGMRPLPGQCNVKVRRDHIFEDSYAEIMRYSAHDLKKRLMIRFDGEDGLDYGGLSREFFFLLSHKMFDPIYCLFEYSAVDNYTLQINPHSSINPEHLNYFRFIGRVIGLAIFHRRFLDAFFVVSLYKKLLRKKVSLADMESIDAEFYRSLKWVLENDITGILDLTFSVEEDHFGEVRTVELITNGENIEVTEENKKKYVDLVTEWRVSKRVEQQFNAFYSGFVELVSPDLVNVFDERELELLIGGISDVDVEDWKSHTEYRTYIATDPVIKWFWEIIAGWKNEDRSKLLQFATGTSRIPVNGFRDLQGSDGPRKFTIEKAGTPDQLPVAHTCFNRLDLPDYPSKDTLHEKLSLAVENTVGFGNE
binds: [1] | [2] | [3] | [7] | [8] | [9] | [10] | [11]
binds weakly: [4] | [5] | [6]

B2: 3×FLAG-tagged Pub2 (enzyme, UniProt Q9UTG2 1-671)
chain: MENIRFEVQLTILHVEGLWKNGLLRSLKPYLLISVDDDQFIKTNVASGTLRLSWGFTQKLTVSPQSIILLQLFDEKQKNETSDGFVGLGAAVVNSFLPFNNPKDDYKTRITLRSPSGSYRGSVVCLFKRSKFLPEELPADKSQICTDIIDDASGCAWETRIDEFGHVYYLKSPQLSVISAISHEKLENLTPKQLKEVFSQFLFNNQSKSSLKINLEYKVIKHLLEHYPLALSVRQQVAVEKGPLPAGWEMRLSEDYHVYFVDHSTKTTTWSDPRDNVVASDSVSENTDSIQQINDEYQRKIAYMYDRPEMAVNDAQLQLKVSRATTFEDAYDIISKLSVSDMKKKLLIRFRNEDGLDYGGVSREFFYILSHAIFNPGYSLFEYATDDNYGLQISPLSSVNPDFRSYFRFVGRVMGLAIYHRRYLDVQFVLPFYKRILQKPLCLEDVKDVDEVYYESLKWIKNNDVDESLCLNFSVEENRFGESVTVDLIPNGRNIAVNNQNKMNYLKALTEHKLVTSTEEQFNALKGGLNELIPDSVLQIFNENELDTLLNGKRDIDVQDWKRFTDYRSYTETDDIVIWFWELLSEWSPEKKAKLLQFATGTSRLPLSGFKDMHGSDGPRKFTIEKVGHISQLPKAHTCFNRLDIPPYNSKEELEQKLTIAIQETAGFGTE
binds weakly: [1] | [11]

Results are given in words; binding and its absence hold for the method and conditions named. Binding seen in cells or lysates may run through a third protein. A result given as binding can be weak or reduced; the word gives no strength. Sequences can lack the tags named with a protein.
